According to the supplement of paper PMC6078165:

System: MDAMB468
Experiment: relative JC-1 red fluorescence (viability) vs pre-drug, coculture with fibroblast (fraction); higher = more viable cancer cells
Procedure: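 JC-1 labelled TNBC cells cocultured 1:1 (1,500 cells each) with CellTrace Violet stained primary or stromal fibroblasts in 384-well plates in FluoroBrite medium, treated with one of 42 anticancer drugs at 0.1, 1, 10 or 100 uM. JC-1 red fluorescence (mitochondrial integrity in cancer cells only) was read by plate reader every 8 h for 72 h. Values are normalised to each well's pre-drug value. The stock of one drug was tenfold lower, so its dose labels may be too high.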

Nc1ccn([C@@H]2O[C@H](CO)[C@@H](O)C2(F)F)c(=O)n1 [Gemcitabine]
relative JC-1 red fluorescence
Conditions | 8 h | 16 h | 24 h | 32 h | 40 h | 48 h | 56 h | 64 h | 72 h
10 µM, coculture fibroblast: C12385 | 0.8934 | 0.7833 | 0.746 | 0.673 | 0.613 | 0.576 | 0.52 | 0.473 | 0.449
10 µM, coculture fibroblast: H6013 | 0.865 | 0.8342 | 0.7937 | 0.772 | 0.739 | 0.735 | 0.687 | 0.686 | 0.619
10 µM, coculture fibroblast: H6019 | 0.806 | 0.75 | 0.68 | 0.572 | 0.487 | 0.449 | 0.399 | 0.375 | 0.36
10 µM, coculture fibroblast: H6076 | 0.925 | 0.951 | 0.841 | 0.7974 | 0.6956 | 0.6396 | 0.542 | 0.502 | 0.533
10 µM, coculture fibroblast: H6231 | 0.839 | 0.912 | 0.8286 | 0.81 | 0.7371 | 0.6956 | 0.617 | 0.577 | 0.555
10 µM, coculture fibroblast: HADF | 0.8849 | 0.808 | 0.753 | 0.722 | 0.636 | 0.604 | 0.523 | 0.5 | 0.425
10 µM, coculture fibroblast: HCFa | 0.855 | 0.82013 | 0.75 | 0.697 | 0.62 | 0.61 | 0.542 | 0.497 | 0.43
10 µM, coculture fibroblast: HCPF | 0.89 | 0.9694 | 0.905 | 0.887 | 0.821 | 0.777 | 0.696 | 0.67 | 0.632
10 µM, coculture fibroblast: HHSteC | 0.8674 | 0.8128 | 0.7564 | 0.701 | 0.652 | 0.651 | 0.573 | 0.544 | 0.481
10 µM, coculture fibroblast: HMF | 0.84 | 0.816 | 0.904 | 0.847 | 0.782 | 0.748 | 0.667 | 0.6159 | 0.561
10 µM, coculture fibroblast: HPFa | 0.913 | 0.853 | 0.829 | 0.741 | 0.677 | 0.672 | 0.606 | 0.574 | 0.501
10 µM, coculture fibroblast: HUF | 0.942 | 0.8378 | 0.7876 | 0.714 | 0.66 | 0.629 | 0.569 | 0.552 | 0.535
10 µM, coculture fibroblast: Hs5 | 0.82 | 0.969 | 0.887 | 0.835 | 0.744 | 0.684 | 0.613 | 0.561 | 0.573
10 µM, coculture fibroblast: Hs27A | 0.852 | 0.8087 | 0.759 | 0.7521 | 0.694 | 0.682 | 0.627 | 0.609 | 0.559
10 µM, coculture fibroblast: Hs343T | 0.889 | 0.9662 | 0.881 | 0.841 | 0.746 | 0.709 | 0.631 | 0.592 | 0.528
10 µM, coculture fibroblast: WS1 | 0.856 | 0.763 | 0.707 | 0.64 | 0.587 | 0.555 | 0.502 | 0.469 | 0.459
100 µM, coculture fibroblast: C12385 | 0.894 | 0.828 | 0.792 | 0.723 | 0.668 | 0.638 | 0.562 | 0.523 | 0.5
100 µM, coculture fibroblast: H6013 | 0.867 | 0.809 | 0.762 | 0.729 | 0.687 | 0.686 | 0.646 | 0.637 | 0.57
100 µM, coculture fibroblast: H6019 | 0.841 | 0.758 | 0.705 | 0.596 | 0.534 | 0.498 | 0.44 | 0.426 | 0.423
100 µM, coculture fibroblast: H6076 | 0.937 | 0.954 | 0.867 | 0.82 | 0.696 | 0.624 | 0.545 | 0.507 | 0.552
100 µM, coculture fibroblast: H6231 | 0.858 | 0.939 | 0.871 | 0.871 | 0.79 | 0.762 | 0.711 | 0.68 | 0.665
100 µM, coculture fibroblast: HADF | 0.8941 | 0.826 | 0.7738 | 0.754 | 0.698 | 0.696 | 0.6335 | 0.609 | 0.53
100 µM, coculture fibroblast: HCFa | 0.873 | 0.821 | 0.761 | 0.73 | 0.661 | 0.641 | 0.568 | 0.53 | 0.46
100 µM, coculture fibroblast: HCPF | 0.873 | 0.9337 | 0.9079 | 0.8873 | 0.7929 | 0.756 | 0.679 | 0.653 | 0.632
100 µM, coculture fibroblast: HHSteC | 0.918 | 0.827 | 0.759 | 0.709 | 0.657 | 0.65 | 0.576 | 0.54619 | 0.4843
100 µM, coculture fibroblast: HMF | 0.88 | 0.946 | 0.8559 | 0.847 | 0.78 | 0.757 | 0.6833 | 0.6565 | 0.63575
100 µM, coculture fibroblast: HPFa | 0.915 | 0.861 | 0.8033 | 0.7377 | 0.689 | 0.6833 | 0.61 | 0.591 | 0.518
100 µM, coculture fibroblast: HUF | 0.925 | 0.837 | 0.79 | 0.715 | 0.644 | 0.599 | 0.548 | 0.516 | 0.488
100 µM, coculture fibroblast: Hs5 | 0.924 | 0.924 | 0.8713 | 0.842 | 0.745 | 0.677 | 0.62 | 0.577 | 0.616
100 µM, coculture fibroblast: Hs27A | 0.827 | 0.7462 | 0.693 | 0.663 | 0.59 | 0.565 | 0.53 | 0.505 | 0.443
100 µM, coculture fibroblast: Hs343T | 0.905 | 0.979 | 0.917 | 0.874 | 0.778 | 0.728 | 0.644 | 0.597 | 0.563
100 µM, coculture fibroblast: WS1 | 0.8858 | 0.796 | 0.743 | 0.662 | 0.605 | 0.554 | 0.483 | 0.418 | 0.394

The reference is the same well before dosing, and untreated signal decays as well.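 Fibroblast labels name human fibroblasts: mostly primary ones from tissues such as uterus (C12385, HUF), lung (H6013), bone (Hs27A), adrenal (HADF) and skin (WS1), plus mammary HMF and breast cancer-associated Hs343T. The cancer cells are basal-like or mesenchymal-like triple-negative breast cancer lines. The paper calls a changed response a hit when it shifts by more than 3x the replicate standard deviation. The tissue of the other fibroblasts is not given here.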
